# Non-standard residues stand in square brackets, D forms with d. Residues, ends and D or L forms follow the SMILES beside them. *: point of attachment. X1 = CC(C)C[C@@H](CN1CCC[N+]2=C1CCC2)N*; Pip = O=C(O)[C@@H]1CCCCN1; Iva = CC[C@](C)(N)C(=O)O; Aib = CC(C)(N)C(=O)O; βAla = NCCC(=O)O
# Test system: Toxoplasma gondii tachyzoites (RH88)
# Conditions: for SI: selectivity index, HFF versus TgRH88; for times more potent in T. gondii as compared to P. falciparum: TgRH88 IC50 versus PfDd2 IC50
# Procedure: For the initial fixed concentration screening and IC50 determination in T. gondii, we utilized a luciferase expressing RH88 strain to quantify the number of live, actively replicating parasites. To construct this strain, the Fluc and DHFR selection markers had been integrated into the UPRT locus through CRISPR/Cas9, rendering the strain pyrimethamine-resistant ([6]). Screening was performed using a pure compound library provided by the University of Oklahoma Natural Products Discovery Group, containing 683 compounds derived primarily from fungal secondary metabolites. For purposes of testing, HFFs were grown in 96-well microtiter plates in preparation. The media we used to grow cells was referred to a D10 media that was composed of Dulbecco's Modified Eagle Medium (Thermo Fisher; Cat # 11995073), 10% Fetal Bovine Serum (Sigma-Aldrich; Cat # 12306C), 1 × non-essential amino acids (100 ×; Thermo Fisher; Cat # 11140050), HEPES buffer (1M; Fisher Scientific; Cat # SH3023701) at 0.4M, and 10 mg/mL of gentamicin (Fisher Scientific; Cat # 15710072). Compounds were then diluted to 10 µM in 100 µL of fresh D10 media. Each plate utilized artemisinin and DMSO vehicle controls. To each well, 2,500 parasites per 100 µL of D10 media were added. Three technical replicates were then performed. After 48 hours, 160 µL of the D10 media was removed, and plates were subjected to freezing then thawing. Following this, 10 µL of the passive lysis buffer (Promega; Cat# E1910) was added and incubated at room temperature for 15 min. Finally, 100 µL of luciferase assay reagent (Promega; Cat# E1501) was added to each well, and luminescence was measured using a PHERAstar FSX plate reader (BMG Labtech, Germany).
# For IC50 and cytotoxicity determination, we used 384 plates with confluent HFF cells. Compounds were serially diluted 3-fold with a starting concentration of 20 µM. Samples were further diluted by adding an equal volume of media containing 700 parasites. DMSO and […] of KAE609 were used as negative and positive controls, respectively. Assays were performed with a total of three technical replicates and two biological replicates. After incubation for 48 hours, 50 µL of media was removed, and plates were subjected to freezing and thawing. Following this, 10 µL of passive lysis buffer was added and plates were incubated for 15 min at room temperature. Finally, 30 µL of luciferase reagent was added, and the luminescence was measured immediately using a PHERAstar FSX. In parallel, cytotoxicity dose response was performed in the same fashion without the addition of parasites. Cell counting kit-8 reagent (GlpBio; Cat # GK10001) was added at a 1:10 dilution and incubated at 37°C, 5% CO2 for 1 hour. The absorbance was then measured at 450 nm using a PHERAstar FSX. The data management system CDD vault was used for curve fitting and IC50 determination.
Molecule,SI,times more potent in T. gondii as compared to P. falciparum
"C[C@@H]1CC[C@H]2[C@@H](C)C(=O)O[C@@H]3O[C@@]4(C)CC[C@@H]1[C@]32OO4 [Artemisinin, reference compound]",15,–
"CC1=C[C@@H]2/C=C(\C)CC[C@H](O)[C@H](O)/C=C/C(=O)[C@]23C(=O)N[C@@H](CC(C)C)[C@@H]3[C@@H]1C [compound 170081, Aspochalasin D]",24,–
"COc1c(C[C@@H](C)OC(=O)Oc2ccc(O)cc2)c2c3c(C[C@@H](C)OC(=O)c4ccccc4)c(OC)c(=O)c4c(O)cc(OC)c(c5c(OC)cc(O)c(c1=O)c52)c43 [compound 170068, Calphostin C]",>17,–
Verticillin [compound 130038],1,–
"COC(=O)[C@]12Oc3cc4c(c(O)c3C(=O)C1=C(O)CC[C@@H]2O)[C@@H]1C=C[C@@]2(C4)C(=O)c3cc(C)cc(O)c3C(O)=C2C1=O [compound 130147, Xanthoquinodin A2]",218,12
"CC(O)[C@@]12SS[C@]3(C(=O)N1C)[C@@H](O)C1([C@@]45c6ccccc6N[C@@H]4N4C(=O)[C@]6(C(C)O)SS[C@]4(C(=O)N6C)[C@H]5O)c4ccccc4N[C@@H]1N3C2=O (stereo partly shown) [compound 130016, Verticillin D]",26,–
"COC(=O)C12Oc3c(c(O)cc4c3C3C=CC5(C4)C(=O)c4cc(C)cc(O)c4C(O)=C5C3=O)C(O)=C1C(=O)CCC2O (stereo not shown) [compound 130143, Xanthoquinodin B2]",>153,–
COC(=O)C1=CC(O)C(O)C(O)C1N1CC(O)C(OC(C)=O)C1Cc1ccc(OC)cc1 (stereo not shown) [compound 150029],49,–
"CCCCC[C@@H](O)C[C@@H](O)C[C@@H]1Cc2cc3cc(OC)c(-c4c(OC)cc5cc6c(c(O)c5c4O)C(=O)O[C@H](C[C@H](O)C[C@H](O)CCCCC)C6)c(O)c3c(O)c2C(=O)O1 [compound 150020, Dinapinone A]",2,–
"CC[C@](C)(NC(=O)[C@H](CC(C)C)NC(=O)[C@H](C)NC(=O)C(C)(C)NC(=O)[C@@H]1CCCCN1C(=O)C(C)(C)NC(=O)C(C)(C)NC(=O)CNC(=O)CCNC(=O)[C@H](CC(C)C)NC(=O)C(C)(C)NC(=O)C(C)(C)NC(=O)[C@@H]1CCCCN1C(=O)C(C)(C)NC(=O)[C@@H]1CCCCN1C(C)=O)C(=O)N[C@@H](CC(C)C)CN1CCC[N+]2=C1CCC2 [compound 150003, Efrapeptin F] (Ac-[Pip][Aib][Pip][Aib][Aib]L[βAla]G[Aib][Aib][Pip][Aib]AL[Iva]-X1; N-terminus and C-terminus assumed)",>360,7
Alpha-cyclopiazonic acid [compound 170027],>36,–
"COC(=O)c1c(Sc2c(O)cc(OC)c(C(=O)c3c(O)cc(C)cc3O)c2C(=O)OC)c(O)cc(OC)c1C(=O)c1c(O)cc(C)cc1O [compound 150052, Polluxochrin]",>75,–
"CC[C@](C)(NC(=O)[C@H](CC(C)C)NC(=O)[C@H](C)NC(=O)C(C)(C)NC(=O)[C@@H]1CCCCN1C(=O)C(C)(C)NC(=O)C(C)(C)NC(=O)CNC(=O)CCNC(=O)[C@H](CC(C)C)NC(=O)C(C)(C)NC(=O)[C@](C)(CC)NC(=O)[C@@H]1CCCCN1C(=O)C(C)(C)NC(=O)[C@@H]1CCCCN1C(C)=O)C(=O)N[C@@H](CC(C)C)CN1CCC[N+]2=C1CCC2 [compound 150004, Efrapeptin G] (Ac-[Pip][Aib][Pip][Iva][Aib]L[βAla]G[Aib][Aib][Pip][Aib]AL[Iva]-X1; N-terminus and C-terminus assumed)",–,37
PF-1140 [compound 120159],>6,–
"COC(=O)[C@@]12Oc3cc4c(c(O)c3C(=O)C1=C(O)CC[C@@H]2O)[C@@H]1C=C[C@@]2(C4)C(=O)c3cc(C)cc(O)c3C(O)=C2C1=O [compound 130144, Xanthoquinodin A1]",115,2
"C[C@H]1Cc2c([nH]c3cc(Cl)c(F)cc23)[C@@]2(N1)C(=O)Nc1ccc(Cl)cc12 [KAE609, reference compound]",>46,–
"C=C1Cc2ccc3[nH]c4c(c3c2[C@H]2[C@@H]1C[C@@H]2C(C)(C)O)C[C@@H]1CC[C@@]2(O)C3=C[C@@H](O)[C@@H](C(=C)C)O[C@H]3CC[C@]2(C)[C@@]41C [compound 120253, Secopenitrem D]",>1,–
"COC(=O)[C@@]12Oc3ccc(-c4ccc5c(c4O)C(O)C4=C(O)C[C@H](C)[C@@H](O)[C@]4(C(=O)OC)O5)c(O)c3C(=O)C1=C(O)C[C@H](C)[C@H]2O (stereo partly shown) [compound 130002, Secalonic acid D]",11,–
"C[C@H]1CCC/C=C/[C@@H]2C[C@H](O)C[C@H]2[C@H](O)/C=C/C(=O)O1 [compound 160010, Brefeldin A]",26,–

# Source: paper PMC10986609, “Identification of fungal natural products with potent inhibition in Toxoplasma gondii” (Microbiology Spectrum, 2024)
